Measurements from publication PMC12373997.
Results are given in words; binding and its absence hold for the method and conditions named. Some results given as binding are weak or reduced against the parent protein; the word gives no strength. Where a sequence is shown, tags or fusion partners need not be part of it. Each block holds one binder with its values, some of them ahead of it.

How the values were obtained:
[1] = target: T1, D. melanogaster Msd5^Δ81–93 (HAUS7 ortholog)-EGFP, N-clamp fragment (D. melanogaster) (UniProt Q9W0G6); test: mass photometry; complex purified as a whole, 1 µl of 400 nM protein into 19 µl MP buffer (20 mM HEPES pH 7.4, 150 mM KCl, 1 mM MgCl2, 1 mM EGTA, or 1xPBS); both purified
T1 sequence: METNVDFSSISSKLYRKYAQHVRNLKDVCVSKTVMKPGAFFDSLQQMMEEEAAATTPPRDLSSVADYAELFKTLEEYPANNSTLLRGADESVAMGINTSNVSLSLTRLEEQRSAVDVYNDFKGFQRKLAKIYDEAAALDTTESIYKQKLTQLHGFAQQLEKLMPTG

[2] = target: T2, D. melanogaster Dgt4 (HAUS8 ortholog)-HIS8, N-clamp fragment (D. melanogaster) (UniProt Q9W4M8); test: as above
T2 sequence: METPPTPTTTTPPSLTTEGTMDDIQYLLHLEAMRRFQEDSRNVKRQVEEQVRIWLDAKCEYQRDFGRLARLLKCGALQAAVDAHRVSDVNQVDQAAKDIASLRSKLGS

binding [1]: binds
B1: D. melanogaster Dgt6 (HAUS6 ortholog), N-clamp fragment with the CH domain (domain or fragment, UniProt Q9VAP2 1-280)
chain: MDRTIIAPWKAEEKEQSEKLHRKLQGLALVHPLPDELRKLIAWDMFLKPNQVAFVHVMHYLFRLLDPAEFKRRFFWPITDKKSEANFRSSTVEYLKHLNEKHQLHWANIKSYLVVMPGGMRFINFLLEFVGFVIQELIKQREKSLGLEAGTPNVSAKVMARQNAVMKEYASSYVVNLEENTALLRDKTQKIRRLMADLSADMGVPEEQLADDGFLDEFEATAALGVERVITQPTERKFDLEASLCGLKEAIDLFQVKQAENNQSKEAVEKALRGMRVLFD

binding [2]: binds
B2: D. melanogaster Msd5^Δ81–93 (HAUS7 ortholog)-EGFP, N-clamp fragment (domain or fragment, UniProt Q9W0G6)
chain: T1 sequence
